From patent US12435032B2, “L-γ-methyleneglutamine compounds and methods of use” (University of Mississippi, priority 2019, dated 2025) come the findings set out here.

Common to all, as to type: cell-based
Assay [1] relates to MCF-10A non-cancerous breast cells. Nature of the assay: Growth inhibition of MCF-10A cells (negative control line). The note with it: Homo sapiens, dose-response 0.32-320 μM. As for the experimental part: (§1) Compound efficacy was then compared to those of tamoxifen and olaparib. […] Olaparib was chosen because it is one of a few FDA-approved chemotherapeutics for triple-negative breast cancer.
(§2) Cells were incubated for 15 minutes at 37° C.

For assay [2], the system named is MCF-7 breast cancer cells. Nature of the assay: Cytotoxicity (cell death, propidium iodide) in MCF-7 cells. The following applies: Homo sapiens, MCF7; MCF-7, 72 h exposure, dose-response 0.32-320 μM.
Assay [3] concerns SK-BR-3 (ER−/PR−/HER2+) breast cancer cells. Nature of the assay: Growth inhibition of SK-BR-3 cells. The note with it: Homo sapiens, dose-response 0.32-320 μM. The method, then: as §1, §2

A word on the IC50: it is the concentration that inhibits the measured activity by half. As a reminder, the EC50 is the concentration that produces a half-maximal response. For `CC/C(=C(\c1ccccc1)c1ccc(OCCN(C)C)cc1)c1ccccc1` [Tamoxifen, reference compound], the IC50 in assay [1] (24 h exposure) is above 1000 µM; in assay [1] (72 h exposure), above 1000 µM; in assay [3] (SK-BR-3, 24 h exposure), 0.9 µM; in assay [3] (SK-BR-3, 72 h exposure), 1.7 µM. In assay [2], the EC50 was found to be 285 µM.
